From paper PMC7021753
These are yes or no findings as the source states them, for the method shown. In cells and extracts the contact can be indirect. Binding calls can cover weak binding; strength is not graded here.

Protein sequences, listed by entry. Tags and fused reporters are not part of them.
UniProt Q94517: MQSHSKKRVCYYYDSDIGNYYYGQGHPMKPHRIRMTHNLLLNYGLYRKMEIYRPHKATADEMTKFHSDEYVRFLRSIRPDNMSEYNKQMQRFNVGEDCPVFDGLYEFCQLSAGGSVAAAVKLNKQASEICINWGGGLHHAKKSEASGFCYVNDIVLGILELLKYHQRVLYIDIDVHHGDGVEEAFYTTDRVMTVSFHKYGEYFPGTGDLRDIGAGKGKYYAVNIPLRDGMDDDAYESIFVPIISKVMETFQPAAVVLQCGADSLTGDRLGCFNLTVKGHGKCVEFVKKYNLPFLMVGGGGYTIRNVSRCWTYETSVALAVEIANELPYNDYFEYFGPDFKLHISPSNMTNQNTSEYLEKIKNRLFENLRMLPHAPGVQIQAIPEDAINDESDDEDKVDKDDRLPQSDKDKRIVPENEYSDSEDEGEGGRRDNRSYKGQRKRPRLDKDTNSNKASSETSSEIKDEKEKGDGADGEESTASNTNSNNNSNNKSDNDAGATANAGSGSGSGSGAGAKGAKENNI

Biological target: SU(VAR)2-1-EGFP fusion protein (Drosophila melanogaster) (UniProt Q9VL20)
Test: co-IP; SU(VAR)2-1-EGFP captured on GFP-Trap magnetic beads from larval salivary gland extract (100 glands; lysis buffer 20 mM HEPES pH 7.7, 450 mM NaCl, 0.25% NP40, diluted); washes incl. 500 mM NaCl; Western blot with EGFP and RPD3 polyclonal antibodies; two independent immunoprecipitations

binding: binds
Substance: histone deacetylase RPD3 (from UniProt Q94517 1-521) (enzyme)
